Laboratory results taken from PubChem BioAssay AID602332 (National Center for Advancing Translational Sciences (NCATS), 2012).
The whole screen tested about 420,000 compounds, of which about 75 (0.02%) were called active. All entries are inconclusive by the source's own rule. Clear calls are listed elsewhere. Calls come from the whole dose curve; as a rule, active = well fitted activation curve with a large enough effect; inconclusive = small, poorly fitted or top-dose-only effect; inactive = no such curve, though single readings can be large or run the other way. Some tests of the compounds listed are not included; inactive here does not mean inactive elsewhere.

assay: qHTS for Inducers of the Endoplasmic Reticulum Stress Response (ERSR) in Human Glioma: qHTS; conditions: U87-MG GRP78 promoter luciferase reporter, 16 h; note: nearly all actives have a fitted effect of over 35% in size
Potency is the fitted concentration of half-maximal effect.

Row | SMILES | Potency
1 | CN(C)C1(CNC(=O)c2ccc(Br)cc2)CCCCC1 | inconclusive: 63.1 µM
